{
  "source": "patent US20140038836A1",
  "about": "“Novel Pharmacogene Single Nucleotide Polymorphisms and Methods of Detecting Same” (priority 2012, published 2014)",
  "origin": "cited, not measured here",
  "test_system": "Tat gene promoter/intron",
  "conditions": "Tat (tyrosine aminotransferase)",
  "note": "At least one structure is not confirmed: it was looked up by name or label, or the drawing left a doubt.",
  "data": [
    {"smiles": "C[C@@H]1C[C@H]2[C@@H]3CCC4=CC(=O)C=C[C@]4(C)[C@@]3(F)[C@@H](O)C[C@]2(C)[C@@]1(O)C(=O)CO", "note": "[Dexamethasone]", "values": [
      {"measurement": "Fold activation by Dexamethasone", "result": "22.3 ± 4.6", "unit": "fold"}
    ]}
  ]
}
